According to PubChem BioAssay AID2685 (National Center for Advancing Translational Sciences (NCATS), 2010):
This is one part of the list. The main result of the screen is listed elsewhere. These columns were measured beside it and carry no call. Most of these compounds were active or inconclusive in the main read-out, so they are no random draw. Potencies come from curve fits of mixed quality, noted in brackets.

Test: qHTS Assay for Lipid Storage Modulators in Drosophila S3 Cells;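 on cell number change: cells counted by Cell Tracker Red CMTPX staining in the red channel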
Settings: BODIPY lipid droplet fluorescence, 18-24 h; for cell number change: measured here: cell count max response, cells fed with added oleic acid
In short: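 Drosophila S3 cells got compounds at several concentrations plus oleic acid (400 uM solution). Laser-scanning cytometry with 488 nm excitation read lipid droplets at 500-530 nm and cells at 575-640 nm. Percent activity was relative to 20 uM Triacsin C.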

[1] = measured here: lipid fluorescence (Fed channel) AC50, cells fed with added oleic acid
[2] = measured here: cell number channel AC50, cells fed with added oleic acid

Structure (SMILES)	cell number change [%]	AC50 [1]	AC50 [2]
O=C(O)c1c2c(nc3ccc(S(=O)(=O)N4CCC(C(=O)NC5CCCC5)CC4)cc13)CCCCC2	-3.31	29.1 µM [falling, single point]	
CCOC(=O)c1ccc2c(c1)nc(COc1ccc(OC)cc1)n2CC	-13.4	1.16 µM [rising, full curve]	
CC(C)NC(=O)c1ccc(COc2ccc(C(C)(C)C)cc2)o1	-49.1	20.6 µM [falling, single point]	20.6 µM [falling, single point]
CSCCC(NC(=O)C1CCC(C)CC1)C(=O)NCCN1CCOCC1 (stereo unspecified)	-18.8	0.146 µM [falling, full curve]	
Cc1ccc(-c2nc(CS(=O)(=O)CC(=O)NCc3ccc4c(c3)OCO4)c(C)o2)cc1	1.18		
O=[N+]([O-])c1cccc(-c2ccc(/C=N/Nc3nc(N4CCCCC4)nc(N4CCCCC4)n3)o2)c1	-32.9		20.6 µM [falling, single point]
CCc1nc2ccccc2c(C(=O)OCC(=O)NCCCN2CCCC2=O)c1C			0.00517 µM [falling, full curve, poor fit]
Cc1cc(N2C(=O)C(O)=C(C(=O)c3ccc(C)o3)C2c2ccc(OCc3ccccc3)cc2)no1 (stereo unspecified)	71.9	18.4 µM [rising, partial curve]	16.4 µM [rising, partial curve]
CC(=O)c1sc2nc(SCC(=O)N3CCCCC3)[nH]c(=O)c2c1C	-0.0674	5.8 µM [rising, partial curve]	
COc1cccc(/C=C/C(=C2/C(=O)N(c3ccccc3)N=C2C)c2ccccc2)c1OC		3.66 µM [falling, single point]	6.51 µM [falling, single point]
Cc1cc(C)n(S(=O)(=O)c2ccc(Cl)c(Cl)c2Cl)n1	56.4	7.31 µM [rising, partial curve]	5.17 µM [rising, partial curve]
COc1ccc(/C=N/OCC(=O)NCC(C)C)c(OC)c1	5.68	1.46 µM [falling, partial curve]	1.84 µM [falling, partial curve]
CC(C)(C)Nc1nc(Cl)nc(NCCN2CCOCC2)n1	24.4	6.51 µM [rising, partial curve, poor fit]	
CCOc1ccc2nc(N/C(N)=N/S(C)(=O)=O)nc(C)c2c1	3.21	4.11 µM [falling, full curve, poor fit]	
Oc1ccc(/C=N/Nc2nc(N3CCCC3)nc(N3CCCC3)n2)cc1O	-10.7		

A run of entries from the list above, for reference:
Structure (SMILES)	cell number change [%]	AC50 [1]	AC50 [2]
COc1ccc(/C=N/OCC(=O)NCC(C)C)c(OC)c1	5.68	1.46 µM [falling, partial curve]	1.84 µM [falling, partial curve]
CC(C)(C)Nc1nc(Cl)nc(NCCN2CCOCC2)n1	24.4	6.51 µM [rising, partial curve, poor fit]	
CCOc1ccc2nc(N/C(N)=N/S(C)(=O)=O)nc(C)c2c1	3.21	4.11 µM [falling, full curve, poor fit]	
Oc1ccc(/C=N/Nc2nc(N3CCCC3)nc(N3CCCC3)n2)cc1O	-10.7		
